Patent publication US10196604B2, “Mitochondrial inhibitors for use in culturing pluripotent stem cells” (The Board of Trustees of the Leland Stanford Junior …, priority 2014, dated 2019)
Some entries share one result that the patent states for a list of compounds.

What was measured:
[1] = system: SURVIVIN; assay: qRT-PCR gene expression in hES cells: SURVIVIN; type: cell-based, human; details: 1 mM, 72 hours, vs control
Description: (§1) Total cellular RNA was extracted from cells using TRIzol (Invitrogen) and DNase treated with the DNA-free kit (Ambion, Austin, Tex., http (colon slash slash) www (dot) ambion.com) following manufacturer's directions for stringent conditions. RNA was dialyzed for 30 minutes against milliqwater, 10 mM Tris and 1 mM EDTA adjusted to pH 7.5 with HCL (all from Fisher). cDNA was synthesized using GeneAmp RNA PCR kit from Applied Biosciences (Fisher) and no-RT reactions were performed without reverse transcriptase and RNase inhibitor enzymes. One microgram of RNA was used, following manufacturer's directions. Quantitative real time polymerase chain reaction (qPCR) was performed to determine relative mRNA expression levels. Expression fold changes were calculated using the ΔΔCt method and normalized using the housekeeping gene, β-ACTIN as an internal control. Taqman master mix and gene assays with water only were used as a negative control. mRNA expression assays were analyzed in a triplicate PCR reaction with no-RT negative controls and each experiment was performed at least three independent times. Primers for OCT4 and NANOG were selected from predeveloped Applied Biosystems TaqMan Assays, which are pre-designed qPCR primers and TaqMan MGB probes; Oct-4 (Hs01895061_u1) and Nanog (Hs02387400_g1) were selected. Primers for SURVIVIN were: […]
Based on the toxicity results, nine of the above twelve compounds in Example 1 were selected for further screening to assess their effects on the expression of OCT4, NANOG and SURVIVIN in human embryonic stem cells. The results are summarized in Table 2, along with the mitochondrial inhibition activities for these compounds which were disclosed in US20110301180A1 to Collman et al. the content of which has been incorporated herein by reference.
The pluripotency of these cultured human embryonic stem cells were characterized by the marker gene expression as analyzed by Quantitative Reverse Transcriptase PCR (qRT-PCR). All compounds were tested at 1 mM concentration for 72 hours except for compound 1 which was tested at 10 μM. The reversibility of mitochondrial inhibition is presented in the right column.

[2] = system: human embryonic stem cells; assay: Toxicity testing of mitochondrial inhibitors on hES cells (72 hr culture, crystal violet staining); details: tested from 0.1 mM to 50 mM
[3] = system: SURVIVIN, OCT4 and NANOG; assay: qRT-PCR of the three probed genes together (SURVIVIN, OCT4, NANOG) in hES cells; type: cell-based, human; details: 1 mM, 72 hours, vs control
Description: as §1, with “times.” for “times. Primers for OCT4 and NANOG were selected from predeveloped Applied Biosystems TaqMan Assays, which are pre-designed qPCR primers and TaqMan MGB probes; Oct-4 (Hs01895061_u1) and Nanog (Hs02387400_g1) were selected. Primers for SURVIVIN were:”
The pluripotency of these cultured human embryonic stem cells were characterized by the marker gene expression as analyzed by Quantitative Reverse Transcriptase PCR (qRT-PCR). […]

Compound	SURVIVIN overexpression [1]	nontoxic concentration (no toxicity up to) [2] [mM]	overexpression of at least one of the probed genes [3]
O=C(O)CCCC[C@H]1CCSS1 (single isomer, unassigned) [Compound 3, 5-[(3R or 3S)-dithiolan-3-yl]pentanoic acid]	at least 10%	≤ 1	
Cc1cncs1 [Compound 4, 5-methylthiazole]	at least 10%		at least 10%
Cn1c(-c2ccccc2)cnc1S [Compound 5, 3-methyl-4-phenyl-1H-imidazole-2-thione]	at least 10%		
CCOC(=O)Cc1nnn[nH]1 [Compound 6, ethyl 2-(1H-tetrazol-5-yl)acetate]	at least 10%	≤ 1	
CCOC(=O)c1nn[nH]c1C(=O)OCC [Compound 8, diethyl 1H-triazole-4,5-dicarboxylate]		≤ 1	
O=C(O)Cc1nnn[nH]1 [Compound 11, 2-(1H-tetrazol-5-yl)acetic acid]		≤ 1	
CSc1nnn[nH]1 [Compound 12, 5-methylsulfanyl-1H-tetrazole]		≤ 1	at least 10%
